Data reported in publication PMC11078956, “Structural investigation of interactions between halogenated flavonoids and the lipid membrane along with their role as cytotoxic agents” (Scientific Reports, 2024).

What was measured:
[1] = ATR-FTIR of MODEL lipid membranes with compounds; details: MODEL membrane, 50 μM, dry film, 37 °C
[2] = DLS size, PDI and zeta potential of MODEL liposomes; details: compound 30 μM, 2 h, 37 °C
[3] = FT-Raman of MODEL lipid membranes with compounds; details: MODEL membrane, 50 μM; for asymmetric CH3 stretching frequency: control 2955
[4] = FT-Raman of MIMIC lipid membranes with compounds; details: MIMIC membrane, 50 μM
[5] = DPH probe fluorescence anisotropy in MIMIC liposomes; details: MIMIC membrane, 10-50 μM, 37 °C; D6 particularly at 50 μM, D4 only at the highest concentration

SMILES: O=c1cc(-c2ccccc2Cl)oc2ccccc12 [D1, 2′-chloroflavone]
- symmetric stretching of PO2− groups, wavenumber [1]: approximately 1091 cm^−1
- PDI of liposomes [2]: 0.38 ± 0.03
- Size of liposomes [2]: 195.27 ± 7.01 nm

SMILES: O=c1cc(-c2cccc(Cl)c2)oc2ccccc12 [D2, 3′-chloroflavone]
- redshift of symmetric PO2− stretching [1]: 1 cm⁻¹
- C–C stretching frequency [3]: 1145 cm⁻¹
- asymmetric and symmetric CH2 stretching frequencies [3]: 2888 cm⁻¹
- asymmetric CH3 stretching frequency [3]: 2947 cm⁻¹
- PDI of liposomes [2]: 0.41 ± 0.06
- Size of liposomes [2]: 200.8 ± 2.97 nm

SMILES: O=c1cc(-c2ccc(Cl)cc2)oc2ccccc12 [D3, 4′-chloroflavone]
- symmetric stretching of PO2− groups, wavenumber [1]: approximately 1091 cm^−1
- asymmetric CH3 stretching frequency [4]: 2941 cm⁻¹
- PDI of liposomes [2]: 0.42 ± 0.08
- Size of liposomes [2]: 229.7 ± 6.65 nm
- ζ potential of liposomes [2]: 0.80 ± 0.11 mV

SMILES: O=c1cc(-c2ccccc2)oc2ccc(Cl)cc12 [D4, 6-chloroflavone]
- PDI of liposomes [2]: 0.45 ± 0.02
- Size of liposomes [2]: 239.48 ± 9.09 nm
- ζ potential of liposomes [2]: 0.31 ± 0.04 mV

SMILES: O=c1cc(-c2ccccc2)oc2c(Cl)cc(Cl)cc12 [D5, 6,8-dichloroflavone]
- symmetric stretching of PO2− groups, wavenumber [1]: approximately 1091 cm^−1
- deformation of CH frequency [3]: 1267 cm⁻¹
- PDI of liposomes [2]: 0.65 ± 0.08
- Size of liposomes [2]: 177.86 ± 15.85 nm
- ζ potential of liposomes [2]: 0.50 ± 0.04 mV

SMILES: O=c1cc(-c2ccccc2)oc2c(Br)cc(Cl)cc12 [D6, 8-bromo-6-chloroflavone]
- DPH anisotropy change [5]: reduction in anisotropy values
- redshift of symmetric PO2− stretching [1]: 2 cm⁻¹
- asymmetric and symmetric CH2 stretching frequencies [3]: 2888 cm⁻¹
- deformation of CH frequency [3]: 1266 cm⁻¹
- asymmetric CH3 stretching frequency [3]: 2948 cm⁻¹
- symmetric CH3 stretching frequency [4]: 2914 cm⁻¹
- PDI of liposomes [2]: 0.50 ± 0.06
- Size of liposomes [2]: 239.83 ± 3.40 nm
- ζ potential of liposomes [2]: 0.38 ± 0.09 mV
